This is a selection; strong and weak results do not stand in their true shares. For some assays here: At the low end of the ranking, values are background and their order means little. Some of the results follow. For some assays here: Construct or isoform of the protein are uncertain.
Assays:
Test in all cases: DAPPL (digital affinity profiling via proximity ligation, sequencing)
Conditions in all cases: 10 mM Tris-HCl pH 7.5, 50 mM NaCl, 1 mM DTT, 4% glycerol, room temperature, 30 min; GST-TFs on glutathione beads, 16-mer random dsDNA library, 0.1% …; high values mean tight binding; double strand, one strand shown; scale: fold enrichment (6-mer frequency, TF over GST control)
[1] = biological target: T1, ETV4 (UniProt P43268)
T1 sequence: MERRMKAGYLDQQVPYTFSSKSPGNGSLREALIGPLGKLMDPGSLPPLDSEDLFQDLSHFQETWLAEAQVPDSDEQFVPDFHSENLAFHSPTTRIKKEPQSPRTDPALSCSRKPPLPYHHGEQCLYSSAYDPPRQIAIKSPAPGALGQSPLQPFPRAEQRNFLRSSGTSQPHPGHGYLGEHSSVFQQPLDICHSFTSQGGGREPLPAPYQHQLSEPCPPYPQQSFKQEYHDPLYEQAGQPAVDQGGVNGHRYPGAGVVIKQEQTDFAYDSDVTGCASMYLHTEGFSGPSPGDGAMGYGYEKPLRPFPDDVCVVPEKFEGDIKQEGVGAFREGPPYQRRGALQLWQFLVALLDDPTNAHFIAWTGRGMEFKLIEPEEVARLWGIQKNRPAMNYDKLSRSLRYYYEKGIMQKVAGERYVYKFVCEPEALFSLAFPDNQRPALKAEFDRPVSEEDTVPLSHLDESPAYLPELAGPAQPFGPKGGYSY

By UniProt entry, the sequences of proteins in these tests, tags left out. Where a name states a change or a piece, a line headed by the entry shows the natural chain unless it says otherwise.
UniProt P50549: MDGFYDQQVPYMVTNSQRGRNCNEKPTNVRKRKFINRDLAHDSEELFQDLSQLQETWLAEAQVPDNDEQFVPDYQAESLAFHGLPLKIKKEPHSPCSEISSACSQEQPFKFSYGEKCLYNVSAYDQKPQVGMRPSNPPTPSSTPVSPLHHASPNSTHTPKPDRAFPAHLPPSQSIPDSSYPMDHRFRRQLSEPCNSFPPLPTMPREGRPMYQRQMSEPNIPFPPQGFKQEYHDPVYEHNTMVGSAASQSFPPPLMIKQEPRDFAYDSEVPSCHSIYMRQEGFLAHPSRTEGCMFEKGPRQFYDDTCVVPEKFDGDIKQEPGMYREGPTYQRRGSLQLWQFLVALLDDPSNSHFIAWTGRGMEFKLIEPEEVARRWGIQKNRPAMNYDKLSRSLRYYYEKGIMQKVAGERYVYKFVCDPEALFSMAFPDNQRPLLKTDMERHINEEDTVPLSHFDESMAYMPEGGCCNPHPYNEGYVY
UniProt P32519: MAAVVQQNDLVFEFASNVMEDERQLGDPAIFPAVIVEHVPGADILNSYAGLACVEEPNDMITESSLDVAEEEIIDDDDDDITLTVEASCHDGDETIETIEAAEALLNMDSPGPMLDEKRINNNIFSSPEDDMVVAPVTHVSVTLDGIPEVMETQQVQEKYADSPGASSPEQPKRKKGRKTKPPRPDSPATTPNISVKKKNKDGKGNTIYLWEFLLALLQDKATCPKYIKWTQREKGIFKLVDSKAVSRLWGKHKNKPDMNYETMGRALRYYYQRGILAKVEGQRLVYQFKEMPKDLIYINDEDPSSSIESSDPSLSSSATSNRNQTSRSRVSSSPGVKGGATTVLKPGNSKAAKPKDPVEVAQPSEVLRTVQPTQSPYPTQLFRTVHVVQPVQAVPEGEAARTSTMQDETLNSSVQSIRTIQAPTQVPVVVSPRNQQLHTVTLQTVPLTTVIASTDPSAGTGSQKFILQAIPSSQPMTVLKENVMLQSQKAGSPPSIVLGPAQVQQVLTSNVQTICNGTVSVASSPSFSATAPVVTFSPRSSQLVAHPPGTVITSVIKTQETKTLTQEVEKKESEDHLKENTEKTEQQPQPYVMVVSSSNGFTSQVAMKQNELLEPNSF

[2] = biological target: ETV1 (UniProt P50549)
[3] = biological target: T2, ERF (UniProt P50548)
T2 sequence: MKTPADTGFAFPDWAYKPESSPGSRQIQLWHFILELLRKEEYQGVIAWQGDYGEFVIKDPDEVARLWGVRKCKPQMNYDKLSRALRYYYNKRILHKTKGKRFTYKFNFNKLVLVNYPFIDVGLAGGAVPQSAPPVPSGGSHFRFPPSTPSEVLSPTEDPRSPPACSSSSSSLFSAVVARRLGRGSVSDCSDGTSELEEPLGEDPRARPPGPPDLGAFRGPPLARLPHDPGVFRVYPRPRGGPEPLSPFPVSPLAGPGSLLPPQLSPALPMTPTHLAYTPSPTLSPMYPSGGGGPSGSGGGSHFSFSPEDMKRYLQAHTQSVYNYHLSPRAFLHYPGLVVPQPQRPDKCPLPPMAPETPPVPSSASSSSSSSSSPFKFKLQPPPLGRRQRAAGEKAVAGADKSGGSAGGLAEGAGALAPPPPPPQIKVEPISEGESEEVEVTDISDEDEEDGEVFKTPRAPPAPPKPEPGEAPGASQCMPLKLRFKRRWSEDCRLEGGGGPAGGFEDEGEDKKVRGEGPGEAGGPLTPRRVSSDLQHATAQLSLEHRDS

[4] = biological target: ELF1 (UniProt P32519)

Row | Sequence | binding signal [1] | binding signal [2] | binding signal [3] | binding signal [4]
1 | TAATAA | 1.19 | 1.12 | 1.28 | –
2 | TGACTC | 1.34 | 1.33 | – | 1.36
3 | TCACGA | 1.11 | 1.13 | 1.14 | –
4 | ATCTTC | 1.6 | 1.63 | 1.45 | 1.64
5 | ATTTAT | 1.33 | 1.43 | 1.51 | –
6 | AAATTT | 1.3 | 1.35 | 1.43 | –
7 | GAAATA | 1.47 | 1.54 | – | 1.45
8 | CGTTCG | 1.18 | 1.19 | 1.52 | –
9 | CCTACG | 1.44 | 1.47 | 1.37 | –
10 | GCTACC | 1.21 | 1.26 | 1.31 | –
11 | GGTCCT | 0.956 | 0.93 | – | 1.06
12 | CCCCGG | 1.23 | 1.29 | 1.34 | –
13 | TATAGT | 1.01 | 1.11 | 1.16 | –
14 | AACCTC | 1.24 | 1.24 | 1.26 | –
15 | CGCTAG | 1.1 | 1.03 | 1.08 | –
16 | GTCCAC | 1.07 | 0.946 | 1.07 | –
17 | GCTTTG | 1.21 | 1.16 | 1.09 | 1.14
18 | CCGATG | 1.09 | 1.1 | 1.1 | 0.989
19 | TAGTCC | 1.14 | 1.1 | 0.98 | 1.15
20 | TTTTCA | 1.16 | 1.22 | 1.24 | –
21 | CGGCTA | 1.13 | 1.2 | 1.07 | –
22 | CGACGA | 1.24 | 1.07 | 1.12 | 1.09
23 | AGCTAC | 1.19 | 1.21 | 1.25 | 1.15
24 | GTGCTT | 1.38 | 1.16 | 1.26 | –
25 | AACATA | 1.29 | 1.21 | 1.32 | –
26 | ATGTAT | 1.3 | 1.42 | – | 1.3

Row | Sequence | binding signal [1] | binding signal [2] | binding signal [3] | binding signal [4]
27 | TTCCCT | 1.66 | 1.68 | 1.58 | –
28 | CCTACT | 1.74 | 1.49 | – | 1.73
29 | GTCACA | 1.05 | 1.06 | 1.11 | –
30 | ACATCA | 1.18 | 1.15 | 1.13 | –
31 | TTCCTT | 1.76 | 2.04 | 1.77 | –
32 | CTAGTT | 1.36 | 1.35 | 1.34 | –
33 | GCTCGC | 1.32 | 1.37 | – | 1.42
34 | CTTATG | 1.56 | 1.58 | – | 1.38
35 | CTTCAG | 1.26 | – | 1.27 | –
36 | GCGACT | 1.29 | – | 1.43 | –
37 | CTTTTG | 1.41 | 1.3 | – | 1.34
38 | TCTTGT | 1.72 | – | 1.68 | –
39 | TAAAAG | 1.13 | – | 1.2 | –
40 | TCTGTT | 1.45 | – | 1.43 | –
41 | GCATCC | 1.64 | – | 1.43 | –
42 | CCTCAT | 1.38 | 1.37 | – | 1.35
43 | ATGTTC | 1.27 | – | 1.27 | –
44 | AACGAC | 1.13 | 1.15 | – | 1.09
45 | TACCGA | 1.08 | 1.24 | – | 1.17
46 | TACGCT | 1.32 | – | 1.4 | –
47 | TGTGTT | 1.04 | 0.965 | – | 1.03
48 | GAACTC | 1.27 | – | 1.11 | –
49 | CATCCG | 2.29 | 2.19 | – | 1.86
50 | ACAAGC | 1.09 | – | 1.15 | –
51 | TCGAAT | 1.04 | 1 | – | 1.11

A second format for some results above:
Row	Sequence	binding signal [1]	binding signal [2]	binding signal [3]	binding signal [4]
14	AACCTC	1.24	1.24	1.26	–
15	CGCTAG	1.1	1.03	1.08	–
16	GTCCAC	1.07	0.946	1.07	–
